The list does not hold the whole screen: it is rich in T/C values a quarter to a half above the control, in often repeated tests (any T/C) and in doses without a T/C. Other doses and runs of a compound stand elsewhere. T/C gives the treated animals as a percentage of the vehicle group. Some doses have a count of surviving animals in place of a T/C: the source holds a T/C of zero for them, seemingly a mark for toxic or unscored doses. Some survivor counts are full or nearly so, which does not show that the dose was tolerated: survival well below the control is almost never listed, so the zero probably covers shortened survival too. Counts of survivors are from the toxicity check (mostly the fifth day) where no day follows; animals may have died later. Schedules are NCI's codes, taken here to give the interval after Q, in days (D) or hours (H), and the number of doses after X. Some entries were tested several times; the values are given in rising order. For survival time, the PubChem record calls one and a half times the control and up active, and a quarter to a half above the control has no call in these data; cut-offs in other NCI protocols can differ.
Test system: BDF1 mice, P388 leukemia ip, median survival T/C
Assay: NCI In Vivo Anticancer Drug Screen. Data for tumor model P388 Leukemia (intraperitoneal) in B6D2F1 (BDF1) mice
Conditions: T/C endpoint: median survival time, higher T/C = longer survival
In short: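 Mice carrying the transplantable tumour receive compound or vehicle. Survival is followed in each arm, and the treated measure is divided by the vehicle measure.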

[1] = dose: 50.0 mg/kg/injection, schedule: Q01DX009 (ip), vehicle: saline
[2] = dose: 100.0 mg/kg/injection, schedule: Q01DX009 (ip), vehicle: Klucel (hydroxypropylcellulose) (HPC)
[3] = dose: 400.0 mg/kg/injection, schedule: Q01DX009 (ip), vehicle: Klucel (hydroxypropylcellulose) (HPC)
[4] = dose: 400.0 mg/kg/injection, schedule: Q04DX003 (ip), vehicle: Klucel (hydroxypropylcellulose) (HPC)
[5] = dose: 100.0 mg/kg/injection, schedule: Q01DX009 (ip), vehicle: saline with Tween-80
[6] = dose: 200.0 mg/kg/injection, schedule: Q01DX009 (ip), vehicle: saline with Tween-80
[7] = dose: 6.25 mg/kg/injection, schedule: Q01DX009 (ip), vehicle: saline with Tween-80
[8] = dose: 50.0 mg/kg/injection, schedule: Q01DX009 (ip), vehicle: saline with Tween-80
[9] = dose: 100.0 mg/kg/injection, schedule: Q04DX003 (ip), vehicle: saline with Tween-80
[10] = dose: 200.0 mg/kg/injection, schedule: Q04DX003 (ip), vehicle: Klucel (hydroxypropylcellulose) (HPC)
[11] = dose: 25.0 mg/kg/injection, schedule: Q04DX003 (ip), vehicle: saline with Tween-80

With O=NN(CCCl)C(=O)N[C@@H]1CCCC[C@H]1NC(=O)N(CCCl)N=O the T/C (dose: 1.0 mg/kg/injection, schedule: Q04DX003 (ip), vehicle: Klucel (hydroxypropylcellulose) (HPC)) was 127 % of control, the T/C (dose: 1.5 mg/kg/injection, schedule: Q01DX009 (ip), vehicle: Klucel (hydroxypropylcellulose) (HPC)) was 127 % of control and the T/C (dose: 2.0 mg/kg/injection, schedule: Q04DX003 (ip), vehicle: Klucel (hydroxypropylcellulose) (HPC)) was 131 % of control. The T/C (dose: 2.5 mg/kg/injection, schedule: Q04DX003 (ip), vehicle: Klucel (hydroxypropylcellulose) (HPC)) was 125 % of control, the T/C (dose: 3.0 mg/kg/injection, schedule: Q01DX009 (ip), vehicle: Klucel (hydroxypropylcellulose) (HPC)) was 145 % of control and the T/C (dose: 3.0 mg/kg/injection, schedule: Q04DX003 (ip), vehicle: Klucel (hydroxypropylcellulose) (HPC)) was 140 % of control. For the same compound, the T/C (dose: 4.0 mg/kg/injection, schedule: Q04DX003 (ip), vehicle: Klucel (hydroxypropylcellulose) (HPC)) was 141 % of control, the T/C (dose: 25.0 mg/kg/injection, schedule: Q01DX009 (ip), vehicle: Klucel (hydroxypropylcellulose) (HPC)) was 133 % of control and the survivor count (dose: 37.5 mg/kg/injection, schedule: Q01DX009 (ip), vehicle: Klucel (hydroxypropylcellulose) (HPC)) was 6 of 6. The survivor count [1] was 6 of 6, the survivor count (dose: 75.0 mg/kg/injection, schedule: Q01DX009 (ip), vehicle: saline) was 6 of 6 and the survivor count [2] was 6 of 6. The survivor count (dose: 200.0 mg/kg/injection, schedule: Q01DX009 (ip), vehicle: Klucel (hydroxypropylcellulose) (HPC)) was 6 of 6, the survivor count [3] was 3 of 6 and the survivor count [4] was 6 of 6. The survivor count (dose: 600.0 mg/kg/injection, schedule: Q04DX003 (ip), vehicle: Klucel (hydroxypropylcellulose) (HPC)) was 5 of 6.

With CCCCCCCCCCOP(=S)(N1CC1)N1CC1 the T/C (dose: 9.0 mg/kg/injection, schedule: Q04DX003 (ip), vehicle: saline with Tween-80) was 126 % of control, the T/C (dose: 20.0 mg/kg/injection, schedule: Q04DX003 (ip), vehicle: saline with Tween-80) was 138 % of control and the T/C (dose: 30.0 mg/kg/injection, schedule: Q04DX003 (ip), vehicle: saline with Tween-80) was 142 % of control.

In the case of [CH3][Ga][CH3].[CH3][Ga][CH3].[CH3][Ga][CH3].[CH3][Ga][CH3].[OH3+].[OH3+].[OH3+].[OH3+], the survivor count (dose: 5.0 mg/kg/injection, schedule: Q01DX009 (ip), vehicle: saline with Tween-80) is reported as 1 of 6 and the survivor count (dose: 10.0 mg/kg/injection, schedule: Q01DX009 (ip), vehicle: saline with Tween-80) is reported as 0 of 6.

For O=C1CC(SC(=S)C2CCCC2=O)C(=O)O1 (configuration not stated), the survivor count [5] was 4 of 6 and the survivor count [6] was 0 of 6.

With S=c1sc(-c2ccc(Cl)cc2)c[se]1 the survivor count [7] was 6 of 6, the survivor count (dose: 25.0 mg/kg/injection, schedule: Q01DX009 (ip), vehicle: saline with Tween-80) was 6 of 6 and the survivor count [8] was 5 of 6. The survivor count [5] was 6 of 6.

For c1ccc2c(c1)C1CCC2c2ccccc21, the survivor count [9] was 6 of 6.

For Cc1cc(N)on1, the survivor count (dose: 400.0 mg/kg/injection, schedule: Q01DX009 (ip), vehicle: saline) was 6 of 6.

In the case of O=C1CC2OCC=C3CN4CCC56c7ccccc7N1C5C2C3CC46 (configuration not stated), the survivor count (dose: 3.13 mg/kg/injection, schedule: Q01DX009 (ip), vehicle: saline with Tween-80) is reported as 0 of 6, the survivor count [7] is reported as 0 of 6 and the survivor count (dose: 12.5 mg/kg/injection, schedule: Q01DX009 (ip), vehicle: saline with Tween-80) is reported as 0 of 6.

For O=[N+]([O-])c1ccc(C2OC2c2ccccc2)cc1 (configuration not stated), the survivor count [10] was 6 of 6.

With C[C@]12CC[C@H]3[C@@H](CCC4=CC(=O)CC[C@@H]43)[C@@H]1CC[C@@H]2OC(=O)CCc1ccccc1 the survivor count (dose: 200.0 mg/kg/injection, schedule: Q04DX003 (ip), vehicle: saline with Tween-80) was 6 of 6.

In the case of CCC1CCCCN1C(=S)N/N=C(\C)c1ccccn1 (configuration not stated), the T/C (dose: 6.25 mg/kg/injection, schedule: Q04DX003 (ip), vehicle: saline with Tween-80) is reported as 125 % of control, the T/C [11] is reported as 133 % of control and the T/C (dose: 50.0 mg/kg/injection, schedule: Q04DX003 (ip), vehicle: saline with Tween-80) is reported as 125 % of control. For the same compound, the survivor count [9] was 0 of 6.

O=C(O)COc1ccc(-c2ccc(Br)cc2)cc1 was tested, and the survivor count [5] was 6 of 6.

With CC(=O)/C=N/Nc1ccccc1 the T/C (dose: 100.0 mg/kg/injection, schedule: Q04DX003 (ip), vehicle: Klucel (hydroxypropylcellulose) (HPC)) was 131 % of control.

In the case of O=C1C=C(N2CC2)C(=O)C(N2CC2)=C1N1CC1, the survivor count (dose: 0.04 mg/kg/injection, schedule: Q01DX009 (ip), vehicle: saline) is reported as 5 of 6, the survivor count (dose: 0.08 mg/kg/injection, schedule: Q01DX009 (ip), vehicle: saline) is reported as 1 of 6 and 6 of 6 and the survivor count (dose: 0.16 mg/kg/injection, schedule: Q01DX009 (ip), vehicle: saline) is reported as 2 of 6 and 4 of 6. The survivor count (dose: 0.32 mg/kg/injection, schedule: Q01DX009 (ip), vehicle: saline) was 0 of 6 and 1 of 6.

CC1CN1C(=O)c1cc(C(=O)N2CC2C)cc(C(=O)N2CC2C)c1 (configuration not stated) was tested, and the T/C (dose: 16.5 mg/kg/injection, schedule: Q01DX009 (ip), vehicle: saline with Tween-80) was 127 % of control, the T/C (dose: 16.5 mg/kg/injection, schedule: Q04DX003 (ip), vehicle: saline with Tween-80) was 127 % of control and the T/C [11] was 130 % of control. The T/C (dose: 33.0 mg/kg/injection, schedule: Q04DX003 (ip), vehicle: saline with Tween-80) was 140 % of control, the T/C (dose: 37.5 mg/kg/injection, schedule: Q04DX003 (ip), vehicle: saline with Tween-80) was 130 % of control and the survivor count [5] was 4 of 6. The survivor count (dose: 100.0 mg/kg/injection, schedule: Q04DX003 (ip), vehicle: saline) was 5 of 6.

For O=C1CC2OCC=C3CN4CCC56c7ccccc7N1C5C2C3CC46 (configuration not stated) (tested in a mixture with another compound), the survivor count (dose: 2.0 mg/kg/injection, schedule: Q04DX003 (ip), vehicle: saline + alcohol) was 1 of 6.

OCCN1CCN(CC/C=C2\c3ccccc3Sc3ccc(Cl)cc32)CC1 was tested, and the survivor count (dose: 25.0 mg/kg/injection, schedule: Q01DX009 (ip), vehicle: saline) was 6 of 6 and the survivor count [1] was 3 of 6.

For COc1ccc(/C=C/[N+](=O)[O-])cc1O, the survivor count (dose: 150.0 mg/kg/injection, schedule: Q04DX003 (ip), vehicle: saline) was 4 of 6, the survivor count (dose: 200.0 mg/kg/injection, schedule: Q04DX003 (ip), vehicle: saline) was 4 of 6 and the survivor count (dose: 400.0 mg/kg/injection, schedule: Q04DX003 (ip), vehicle: saline) was 0 of 6.

CCCCCCCCC(=O)N1CCOCC1 was tested, and the survivor count (dose: 9.37 mg/kg/injection, schedule: Q01DX009 (ip), vehicle: saline) was 6 of 6, the survivor count (dose: 18.75 mg/kg/injection, schedule: Q01DX009 (ip), vehicle: saline) was 6 of 6 and the survivor count (dose: 37.5 mg/kg/injection, schedule: Q01DX009 (ip), vehicle: saline) was 6 of 6.

In the case of C(=NC(c1ccccc1)(c1ccccc1)c1ccccc1)=NC(c1ccccc1)(c1ccccc1)c1ccccc1, the survivor count (dose: 50.0 mg/kg/injection, schedule: Q01DX009 (ip), vehicle: gum acacia) is reported as 6 of 6 and the survivor count (dose: 400.0 mg/kg/injection, schedule: Q04DX003 (ip), vehicle: gum acacia) is reported as 6 of 6.

With COC(=O)C(c1ccccc1)C(Br)C(=O)c1ccccc1 (configuration not stated) the survivor count [2] was 6 of 6 and the survivor count [3] was 6 of 6.

For Nc1nc(SCc2ccccn2)c2[nH]cnc2n1, the T/C (dose: 67.0 mg/kg/injection, schedule: Q04DX003 (ip), vehicle: Klucel (hydroxypropylcellulose) (HPC)) was 128 % of control, the T/C (dose: 150.0 mg/kg/injection, schedule: Q04DX003 (ip), vehicle: Klucel (hydroxypropylcellulose) (HPC)) was 128 % of control and the T/C [10] was 145 % of control. For the same compound, the survivor count [3] was 6 of 6 and the T/C [4] was 133 % of control.

In the case of Nc1ccccc1SC1=C(Cl)C(=O)c2ccccc2C1=O, the survivor count [8] is reported as 5 of 6, the survivor count [5] is reported as 4 of 6 and the survivor count [6] is reported as 0 of 6.
